Reference: paper PMC6050252
No constants are given. Whether binding was seen depends on the method and setting. In cells and extracts the contact can be indirect. Some entries that bind do so weakly or less than the wild type.

T1: CDC50A (TMEM30A), mouse, endogenous (mouse (endogenous in mouse tissues)) (UniProt Q8VEK0)
T1 sequence: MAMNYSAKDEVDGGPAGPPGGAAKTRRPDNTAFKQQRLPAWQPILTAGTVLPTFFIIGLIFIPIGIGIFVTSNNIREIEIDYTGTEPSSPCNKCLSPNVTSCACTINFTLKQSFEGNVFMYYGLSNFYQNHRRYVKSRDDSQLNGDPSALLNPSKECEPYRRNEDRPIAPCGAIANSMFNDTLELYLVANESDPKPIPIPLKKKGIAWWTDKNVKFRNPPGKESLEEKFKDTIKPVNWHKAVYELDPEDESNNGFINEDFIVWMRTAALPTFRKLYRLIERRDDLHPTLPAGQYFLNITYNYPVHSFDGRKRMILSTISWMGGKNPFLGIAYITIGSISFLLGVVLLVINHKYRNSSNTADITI


Biological target: T1, CDC50A (TMEM30A), mouse, endogenous (mouse (endogenous in mouse tissues))
Assay: co-IP; CHAPS extracts of mouse retina, brain, kidney, testes, liver on Cdc50-7F4-Sepharose, eluted with 7F4 peptide; western blots with antibodies to ATP8A2, ATP8A1, ATP11C, ATP11A and CDC50A

binding | Binder
binds | ATP11C, mouse, endogenous (protein, UniProt Q9QZW0 1-1129) MFRRTLNRLCAGEEKRVGTRTVFVGNHPISGTEPYIAQRFCDNRIVSSKYTLWNFLPKNLFEQFRRIANFYFLIIFLVQVTVDTPTSPVTSGLPLFFVITVTAIKQGYEDWLRHRADNEVNKSAVYIIENAKRVRKESEKIKVGDVVEVQANETFPCDLILLSSCTTDGTCYVTTASLDGESNCKTHYAVRDTIALCTAESIDNLRATIECEQPQPDLYRFVGRISIYSNSIEAVARSLGPENLLLKGATLKNTKKIYGVAVYTGMETKMALNYQGKSQKCSAVEKSINAFLIVYLFILLTKAAVCTTLKYVWQSSPYNDEPWYNQKTQKERETFQVLKMFTDFLSFMVLFNFIIPVSMYVTVEMQKFLGSFFISWDKDFFDEEINEGALVNTSDLNEELGQVDYVFTDKTGTLTENSMEFIECCIDGHKYKGTTQEVDGLSQTDGPLAYFDKADKNREALFLRALCLCHTVEMKTNDDVDGPVEGAGFTYISSSPDEIALVKGAKRFGFTFLGNQNGYIRVENQRKEIEEYELLHTLNFDSVRRRMSVIVRTQKGDILLFCKGADSSIFPRVHSHQIELTKDHVERNAMDGYRTLCVAFKEIPPDDFERINAQLVEAKMALQDREEKLEKVFDEIETNMNLIGATAVEDKLQDQAAETIEALHAAGLKVWVLTGDKMETAKSTCYACRLFQTNTELLELTTKTIEESERKEDRLHELLIEYRKKLLHEFPKSTRSLKKAWTEHQEYGLIIDGSTLSLILNSSQDCSSNNYKSIFLQICMKCTAVLCCRMAPLQKAQIVRMVKNLKGSPITLSIGDGANDVSMILESHVGIGIKGKEGRQAARNSDYSVPKFKHLKKLLLVHGHLYYVRIAHLVQYFFYKNLCFILPQFLYQFFCGFSQQPLYDAAYLTMYNICFTSLPILAYSLLEQHINIDTLTADPRLYMKITGNAMLQLGPFLHWTFLAAFEGTVFFFGTYFLFQTSSLEDNGKIYGNWTFGTIVFTVLVFTVTLKLALDTRFWTWINHFVIWGSLAFYVFFSFFWGGIIWPFLKQQRMYFVFAQMLCSVSTWLAIILLIFISLFPEILLIVVKNVRRRSARRNLSCRRASDSLSARPSVRPLLLRTFSDESNIL
binds | ATP11A, mouse, endogenous (protein, UniProt P98197 1-1187) MDCSLLRTLVRRYCAGEENWVDSRTIYVGHKEPPPGAEAYIPQRYPDNRIVSSKYTFWNFIPKNLFEQFRRIANFYFLIIFLVQLIIDTPTSPVTSGLPLFFVITVTAIKQGYEDWLRHKADNAMNQCPVHFIQHGKLVRKQSRKLRVGDIVMVKEDETFPCDLIFLSSNRADGTCHVTTASLDGESSHKTHYAVQDTKGFHTEADVDSLHATIECEQPQPDLYKFVGRINVYNDLNDPVVRPLGSENLLLRGATLKNTEKIFGVAIYTGMETKMALNYQSKSQKRSAVEKSMNTFLIVYLCILVSKALINTVLKYVWQSEPFRDEPWYNEKTESERQRNLFLRAFTDFLAFMVLFNYIIPVSMYVTVEMQKFLGSYFITWDEDMFDEEMGEGPLVNTSDLNEELGQVEYIFTDKTGTLTENNMAFKECCIEGHVYVPHVICNGQVLPDSSGIDMIDSSPGVCGREREELFFRAICLCHTVQVKDDHCGDDVDGPQKSPDAKSCVYISSSPDEVALVEGVQRLGFTYLRLKDNYMEILNRENDIERFELLEVLTFDSVRRRMSVIVKSTTGEIYLFCKGADSSIFPRVIEGKVDQVRSRVERNAVEGLRTLCVAYKRLEPEQYEDACRLLQSAKVALQDREKKLAEAYEQIEKDLVLLGATAVEDRLQEKAADTIEALQKAGIKVWVLTGDKMETASATCYACKLFRRSTQLLELTTKKLEEQSLHDVLFDLSKTVLRCSGSMTRDSFSGLSTDMHDYGLIIDGAALSLIMKPREDGSSSGNYRELFLEICRNCSAVLCCRMAPLQKAQIVKLIKFSKEHPITLAIGDGANDVSMILEAHVGIGVIGKEGRQAARNSDYAIPKFKHLKKMLLVHGHFYYIRISELVQYFFYKNVCFIFPQFLYQFFCGFSQQTLYDTAYLTLYNISFTSLPILLYSLMEQHVGIDVLKRDPTLYRDIAKNALLRWRVFIYWTFLGVFDALVFFFGAYFIFENTTVTINGQMFGNWTFGTLVFTVMVLTVTLKLALDTHYWTWINHFVIWGSLLFYIAFSLLWGGVIWPFLSYQRMYYVFISMLSSGPAWLGIILLVTVGLLPDVLKKVLCRQLWPTATERTQNIQHQDSISEFTPLASLPSWGAQGSRLLAAQCSSPSGRVVCSRWESEECPVLPLHPGLPHKARYGCCRSSLEMPT
binds | ATP8A1, mouse, endogenous (protein, UniProt P70704 1-1164) MPTMRRTVSEIRSRAEGYEKTDDVSEKTSLADQEEVRTIFINQPQLTKFCNNHVSTAKYNVITFLPRFLYSQFRRAANSFFLFIALLQQIPDVSPTGRYTTLVPLLFILAVAAIKEIIEDIKRHKADNAVNKKQTQVLRNGAWEIVHWEKVAVGEIVKVTNGEHLPADLLSLSSSEPQAMCYIETSNLDGETNLKIRQGLPATSDIKDIDSLMRISGRIECESPNRHLYDFVGNIRLDGHGTVPLGADQILLRGAQLRNTQWVHGIVVYTGHDTKLMQNSTSPPLKLSNVERITNVQILILFCILIAMSLVCSVGSAIWNRRHSGKDWYLHLHYGGASNFGLNFLTFIILFNNLIPISLLVTLEVVKFTQAYFINWDLDMHYEPTDTAAMARTSNLNEELGQVKYIFSDKTGTLTCNVMQFKKCTIAGVAYGHVPEPEDYGCSPDEWQSSQFGDEKTFNDPSLLDNLQNNHPTAPIICEFLTMMAVCHTAVPEREGDKIIYQAASPDEGALVRAAKQLNFVFTGRTPDSVIIDSLGQEERYELLNVLEFTSARKRMSVVVRTPSGKLRLYCKGADTVIYERLAETSKYKEITLKHLEQFATEGLRTLCFAVAEISESDFEEWRAVYHRASTSVQNRLLKLEESYELIEKNLQLLGATAIEDKLQDQVPETIETLMKADIKIWILTGDKQETAINIGHSCRLLKRNMGMIVINEGSLDGTRETLSRHCTTLGDALRKENDFALIIDGKTLKYALTFGVRQYFLDLALSCKAVICCRVSPLQKSEVVEMVKKQVKVITLAIGDGANDVSMIQTAHVGVGISGNEGLQAANSSDYSIAQFKYLKNLLMVHGAWNYNRVSKCILYCFYKNIVLYIIEIWFAFVNGFSGQILFERWCIGLYNVMFTAMPPLTLGIFERSCRKENMLKYPELYKTSQNALDFNTKVFWVHCLNGLFHSVILFWFPLKALQYGTVFGNGKTSDYLLLGNFVYTFVVITVCLKAGLETSYWTWFSHIAIWGSIALWVVFFGIYSSLWPAVPMAPDMSGEAAMLFSSGVFWVGLLSIPVASLLLDVLYKVIKRTAFKTLVDEVQELEAKSQDPGAVVLGKSLTERAQLLKNVFKKNHVNLYRSESLQQNLLHGYAFSQDENGIVSQSEVIRAYDTTKQRPDEW
binds | ATP8A2, mouse, endogenous (protein, UniProt P98200 1-1148) MSRATSVGDQLEAPARIIYLNQSHLNKFCDNRISTAKYSVLTFLPRFLYEQIRRAANAFFLFIALLQQIPDVSPTGRYTTLVPLVIILTIAGIKEIIEDFKRHKADNAVNKKKTIVLRNGMWHTIMWKEVAVGDIVKVLNGQYLPADMVLFSSSEPQGMCYVETANLDGETNLKIRQGLSHTTDMQTRDVLMKLSGRIECEGPNRHLYDFTGNLHLDGKSSVALGPDQILLRGTQLRNTQWVFGVVVYTGHDSKLMQNSTKAPLKRSNVEKVTNVQILVLFGILLVMALVSSVGALFWNGSHGGKSWYIKKMDTNSDNFGYNLLTFIILYNNLIPISLLVTLEVVKYTQALFINWDMDMYYIENDTPAMARTSNLNEELGQVKYLFSDKTGTLTCNIMNFKKCSIAGVTYGHFPELAREQSSDDFCRMTSCTNDSCDFNDPRLLKNIEDQHPTAPCIQEFLTLLAVCHTVVPEKDGDEIIYQASSPDEAALVKGAKKLGFVFTGRTPYSVIIEAMGQEQTFGILNVLEFSSDRKRMSVIVRLPSGQLRLYCKGADNVIFERLSKDSKYMEETLCHLEYFATEGLRTLCVAYADLSENEYEEWLKVYQEASIILKDRAQRLEECYEIIEKNLLLLGATAIEDRLQAGVPETIATLLKAEIKIWVLTGDKQETAINIGYSCRLVSQNMALILLKEDSLDATRAAITQHCTDLGNLLGKENDVALIIDGHTLKYALSFEVRRSFLDLALSCKAVICCRVSPLQKSEIVDVVKKRVKAITLAIGDGANDVGMIQTAHVGVGISGNEGMQATNNSDYAIAQFSYLEKLLLVHGAWSYNRVTKCILYCFYKNVVLYIIELWFAFVNGFSGQILFERWCIGLYNVIFTALPPFTLGIFERSCTQESMLRFPQLYRITQNAEGFNTKVFWGHCINALVHSLILFWVPMKALEHDTPVTSGHATDYLFVGNIVYTYVVVTVCLKAGLETTAWTKFSHLAVWGSMLIWLVFFGVYSTIWPTIPIAPDMKGQATMVLSSAYFWLGLFLVPTACLIEDVAWRAAKHTCKKTLLEEVQELETKSRVMGKAMLRDSNGKRMNERDRLIKRLSRKTPPTLFRTGSIQQCVSHGYAFSQEEHGAVTQEEIVRAYDTTKENSRKK
